Experimental data published in patent US20150368309A1 (SHIRE HUMAN GENETIC THERAPIES, published 2015).
No constants are given. Whether binding was seen depends on the method and setting. Some results given as binding are weak or reduced against the parent protein; the word gives no strength.

Legend:
[1] = molecular target: Human sFlt-1 (Abcam, Cat#54346), without Fc fusion (human) (UniProt P17948); test: DSS crosslinking, anti-PLGF and anti-Flt-1 Western blots
[2] = molecular target: Flt-1 receptor (plate based assay) (Homo sapiens (Human)) (UniProt P17948); test: plate based assay: Flt-1 captured by coated mouse monoclonal anti-Flt-1 antibody, bound PLGF detected with biotinylated goat anti-PLGF antibody and streptavidin-HRP, OD450
[3] = molecular target: Flt-1 receptor (plate based assay) (Homo sapiens (Human)) (UniProt P17948); test: plate based assay, Flt-1 captured by anti-Flt-1 antibody, detection with biotinylated anti-PLGF
human sFlt-1-Fc [4] = molecular target: T1, human sFlt-1-Fc (human, UniProt P17948-2 27-687, limits assumed); test: SPR, capture approach
T1 construct: A bought fusion protein; also called hsFlt-1-Fc; hsFlt-1-Fc dimer; not shown: Fc part (captured and detected with anti-human IgG Fc)

[5] = molecular target: Human sFlt-1 (Abcam, Cat#54346), without Fc fusion (human) (UniProt P17948); test: DSS crosslinking, reduced SDS-PAGE, Western blots with anti-Flt1 and anti-PlGF
mouse sFlt-1 = molecular target: T2, mouse sFlt-1 (mouse, UniProt P35969 23-759, limits assumed); test: SPR, capture approach
T2 construct: also called msFlt-1
T2 sequence (looked up): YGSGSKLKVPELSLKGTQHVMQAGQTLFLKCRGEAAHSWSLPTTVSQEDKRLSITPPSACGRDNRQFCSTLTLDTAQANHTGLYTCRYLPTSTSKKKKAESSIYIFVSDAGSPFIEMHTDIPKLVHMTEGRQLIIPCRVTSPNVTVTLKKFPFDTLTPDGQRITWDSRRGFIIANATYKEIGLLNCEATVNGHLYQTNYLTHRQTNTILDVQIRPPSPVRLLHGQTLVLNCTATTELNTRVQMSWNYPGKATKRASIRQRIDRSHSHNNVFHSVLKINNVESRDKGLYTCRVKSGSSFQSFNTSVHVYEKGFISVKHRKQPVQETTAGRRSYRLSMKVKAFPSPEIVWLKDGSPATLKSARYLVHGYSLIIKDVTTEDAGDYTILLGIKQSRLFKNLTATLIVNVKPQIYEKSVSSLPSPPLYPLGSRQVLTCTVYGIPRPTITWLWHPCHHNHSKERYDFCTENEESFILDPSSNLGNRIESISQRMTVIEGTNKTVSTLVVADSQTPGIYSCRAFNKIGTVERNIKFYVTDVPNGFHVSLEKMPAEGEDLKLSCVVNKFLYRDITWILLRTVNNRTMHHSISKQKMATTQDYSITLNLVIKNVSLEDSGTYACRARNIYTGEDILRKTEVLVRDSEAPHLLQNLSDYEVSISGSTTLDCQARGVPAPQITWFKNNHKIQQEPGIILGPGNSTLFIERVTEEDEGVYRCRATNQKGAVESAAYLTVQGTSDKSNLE
Procedure: In the capture approach, goat anti-hIgG Fc polyclonal antibody (30 μg/mL in 10 mM acetate buffer, pH 5.0) was immobilized onto a CM5 chip by amine coupling. The immobilization level or surface density of anti-hIgG Fc antibody was controlled between 6000 to 8000 RU. For the kinetic study, sFlt-1-Fc was captured on the surface that was immobilized with the anti-hIgG Fc antibody, before each injection of PLGF variants. The capture level of sFlt-1-Fc (10 μg/mL) was controlled by varying contact time, 10 to 30 seconds, at flow rate 10 μL/min. PLGF variants, as analytes, were serially diluted in HBS-EP+ buffer from 50 to 0.03 nM, and injected to the surface that captured sFlt-1-Fc. The association time for each PLGF variants injection was 300 seconds at 30 μL/min and dissociation time was 600 seconds at the same flow rate. After each round of PLGF variants' injection, a regeneration of […] H3PO4 pH1.8 at 60 μl/min for 90 seconds was performed. The regeneration step effectively removes the complex of sFlt-1-Fc and PLGF variants from the surface that was immobilized with anti-hIgG Fc antibody. A stabilization step was applied for 90 seconds after regeneration.
The binding characteristics of PLGF variants, PLGF C59A, human WT PLGF and mouse WT PLGF, with msFlt-1 were studied in the mouse model. The same capture approach for hsFlt-1 was used for the msFlt-1.

[6] = molecular target: Human sFlt-1 (Abcam, Cat#54346), without Fc fusion (human) (UniProt P17948); test: DSS crosslinking, Western blot
PLGF C59A (human) [7] = molecular target: PLGF C59A (human) (UniProt P49763); test: DSS crosslinking, Western blot (self-association)
human sFlt-1-Fc [8] = molecular target: T1, human sFlt-1-Fc; test: SPR, hsFlt-1-Fc captured by anti-hIgG Fc
PLGF C59A (human) [9] = molecular target: PLGF C59A (human) (UniProt P49763); test: DSS crosslinking, anti-PLGF Western blot (self-association)

Measured: binding

B1: wild-type human PLGF protein (ligand)
chain: LPAVPPQQWALSAGNGSSEVEVVPFQEVWGRSYCRALERLVDVVSEYPSEVEHMFSPSCVSLLRCTGCCGDENLHCVPVETANVTMQLLKIRSGDRPSYVELTFSQHVRCECRPLREKMKPERCGDAVPRR
notes: also called WT PLGF; Human WT-PLGF
not listed: PLGF C59A (human) [7] | human sFlt-1-Fc [8] | PLGF C59A (human) [9]
binds: all other assays above

B2: PLGF C59A (ligand)
chain: LPAVPPQQWALSAGNGSSEVEVVPFQEVWGRSYCRALERLVDVVSEYPSEVEHMFSPSAVSLLRCTGCCGDENLHCVPVETANVTMQLLKIRSGDRPSYVELTFSQHVRCECRPLREKMKPERCGDAVPRRHHHHHH
notes: Expressed in human fibrosarcoma cells, purified on a Nickel column, glycosylated; RC4 96.7% monomer; R3 97.1% monomer, formulated in 1 mM DTT; also called C59A PLGF; not shown: Tev protease cleavage site added at the C-terminus
not listed: human sFlt-1-Fc [4] | mouse sFlt-1
binds: all other assays above

B3: mouse WT PLGF (ligand, UniProt P49764 19-158, looked up)
chain: VHSQGALSAGNNSTEVEVVPFNEVWGRSYCRPMEKLVYILDEYPDEVSHIFSPSCVLLSRCSGCCGDEGLHCVPIKTANITMQILKIPPNRDPHFYVEMTFSQDVLCECRPILETTKAERRKTKGKRKRSRNSQTEEPHP
binds: mouse sFlt-1
